Measurements from paper PMC3533138.
No constants are given. Whether binding was seen depends on the method and setting. In cells and extracts the contact can be indirect. Some binding calls cover weakened binding; strength is not graded here.

Protein sequences, listed by entry. Tags and fused reporters are not part of them.
UniProt Q04207: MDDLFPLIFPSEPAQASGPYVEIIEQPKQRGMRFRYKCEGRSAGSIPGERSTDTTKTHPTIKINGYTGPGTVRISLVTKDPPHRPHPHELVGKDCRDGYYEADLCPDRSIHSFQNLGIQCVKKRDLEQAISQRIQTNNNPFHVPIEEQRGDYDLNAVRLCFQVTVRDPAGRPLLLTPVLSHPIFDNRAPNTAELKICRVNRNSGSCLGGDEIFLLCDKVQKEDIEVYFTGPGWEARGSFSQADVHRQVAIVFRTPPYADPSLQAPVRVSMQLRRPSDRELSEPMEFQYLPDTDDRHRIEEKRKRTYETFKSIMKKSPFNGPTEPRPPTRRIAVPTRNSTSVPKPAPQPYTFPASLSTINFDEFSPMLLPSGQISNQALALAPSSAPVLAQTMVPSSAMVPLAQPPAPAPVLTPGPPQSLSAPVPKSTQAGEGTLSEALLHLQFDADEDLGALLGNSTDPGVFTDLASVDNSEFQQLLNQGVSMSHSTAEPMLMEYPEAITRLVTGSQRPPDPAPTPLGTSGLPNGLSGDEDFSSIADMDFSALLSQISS
UniProt Q9Z1E3: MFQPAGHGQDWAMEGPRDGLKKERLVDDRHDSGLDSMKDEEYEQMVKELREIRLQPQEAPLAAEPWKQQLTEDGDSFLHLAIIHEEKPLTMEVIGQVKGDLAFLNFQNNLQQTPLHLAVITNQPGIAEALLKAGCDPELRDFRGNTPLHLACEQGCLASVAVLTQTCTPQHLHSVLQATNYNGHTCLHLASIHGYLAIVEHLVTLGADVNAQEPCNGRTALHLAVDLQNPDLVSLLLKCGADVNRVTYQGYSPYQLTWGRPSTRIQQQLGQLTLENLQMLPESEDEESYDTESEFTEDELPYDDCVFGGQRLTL

Target: p65 (RelA), NFκB subunit (mouse (endogenous in primary mouse hepatocytes)) (UniProt Q04207)
Test: co-IP; endogenous p65 immunoprecipitated with 3 ug anti-p65 (clone F6) and G PLUS-Agarose from 1.5 mg NP-40 lysate (50 mM Tris-HCl, 150 mM NaCl, 1% NP-40) of primary mouse hepatocytes, over-night; washed three times with HNTG buffer; immunoblot with anti-IκBα; cells unstimulated or stimulated with 10 ng/ml TNFα for the indicated times

binding: binds
Substance: IκBα (inhibitor of NFκB alpha) (from UniProt Q9Z1E3 1-314)
